For this experiment, the target named is T1, OTU deubiquitinase 5 (human (endogenous in HPMECs)) (UniProt Q96G74).
T1 sequence: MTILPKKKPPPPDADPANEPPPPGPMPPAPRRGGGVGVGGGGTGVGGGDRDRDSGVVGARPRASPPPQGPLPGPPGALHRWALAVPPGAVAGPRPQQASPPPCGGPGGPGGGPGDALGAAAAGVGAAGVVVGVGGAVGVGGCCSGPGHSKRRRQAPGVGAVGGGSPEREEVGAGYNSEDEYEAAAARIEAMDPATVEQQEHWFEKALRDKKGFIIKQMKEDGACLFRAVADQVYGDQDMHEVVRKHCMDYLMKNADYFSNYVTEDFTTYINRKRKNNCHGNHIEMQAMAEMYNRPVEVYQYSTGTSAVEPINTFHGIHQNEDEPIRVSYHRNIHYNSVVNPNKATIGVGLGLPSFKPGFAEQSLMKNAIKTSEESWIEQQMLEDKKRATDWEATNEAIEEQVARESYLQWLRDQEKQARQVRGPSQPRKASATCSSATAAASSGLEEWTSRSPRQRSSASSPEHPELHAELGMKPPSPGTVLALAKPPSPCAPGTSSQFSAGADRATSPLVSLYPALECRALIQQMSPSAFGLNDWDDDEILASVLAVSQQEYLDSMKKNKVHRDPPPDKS
Description: co-IP; HPMECs co-cultured with SMφ-EVs; lysate; also done with or without Plantainoside D (PD) treatment (Fig. 8E, F; Fig. 9H).

These are yes or no findings as the source states them, for the method shown. In cells and extracts the contact can be indirect. Some results given as binding are weak or reduced against the parent protein; the word gives no strength.

B1: guanylate-binding protein 2 (protein, UniProt P32456 1-591)
chain: MAPEINLPGPMSLIDNTKGQLVVNPEALKILSAITQPVVVVAIVGLYRTGKSYLMNKLAGKKNGFSLGSTVKSHTKGIWMWCVPHPKKPEHTLVLLDTEGLGDIEKGDNENDSWIFALAILLSSTFVYNSMGTINQQAMDQLHYVTELTDRIKANSSPGNNSVDDSADFVSFFPAFVWTLRDFTLELEVDGEPITADDYLELSLKLRKGTDKKSKSFNDPRLCIRKFFPKRKCFVFDWPAPKKYLAHLEQLKEEELNPDFIEQVAEFCSYILSHSNVKTLSGGIPVNGPRLESLVLTYVNAISSGDLPCMENAVLALAQIENSAAVEKAIAHYEQQMGQKVQLPTETLQELLDLHRDSEREAIEVFMKNSFKDVDQMFQRKLGAQLEARRDDFCKQNSKASSDCCMALLQDIFGPLEEDVKQGTFSKPGGYRLFTQKLQELKNKYYQVPRKGIQAKEVLKKYLESKEDVADALLQTDQSLSEKEKAIEVERIKAESAEAAKKMLEEIQKKNEEMMEQKEKSYQEHVKQLTEKMERDRAQLMAEQEKTLALKLQEQERLLKEGFENESKRLQKDIWDIQMRSKSLEPICNIL
For B1, the binding entry is “binds”.

The values above are taken from paper PMC11994402.
